Assay results as given in patent US20080152640A1, “Means and Methods For Treating a Disease Which is Associated With an Excess Transport of Hyaluronan Across a Lipid Bilayer” (priority 2003, published 2008).
At least one compound was matched to its structure with a doubt left.

Experiments:
Type in all cases: cell-based
[1] = test system: bovine articular cartilage; experiment: Proteoglycan loss from interleukin-induced osteoarthritic bovine cartilage organ culture; details: different concentrations
[2] = test system: human synovial fibroblasts; experiment: Growth of human synovial fibroblasts
[3] = test system: human synovial fibroblasts; experiment: Hyaluronan production of human synovial fibroblasts

| SMILES | protection from proteoglycan loss, safranin O histology [1] | growth of human synovial fibroblasts [2] | hyaluronan production of human synovial fibroblasts [3] |
| --- | --- | --- | --- |
| COC(=O)C1=C(C)NC(C)=C(C(=O)OC)C1c1ccccc1[N+](=O)[O-] [nefidipin] | fairly good protection | – | – |
| COC(=O)C1=C(C)NC(C)=C(C(=O)OCCN(C)Cc2ccccc2)C1c1cccc([N+](=O)[O-])c1 (centres unmarked) [nicardipin] | fairly good protection | – | – |
| C/C=C/C[C@@H](C)C(=O)[C@H]1C(=O)N[C@@H](C(C)C)C(=O)N(C)CC(=O)N(C)[C@@H](CC(C)C)C(=O)N[C@@H](C(C)C)C(=O)N(C)[C@@H](CC(C)C)C(=O)N[C@@H](C)C(=O)N[C@H](C)C(=O)N(C)[C@@H](CC(C)C)C(=O)N(C)[C@@H](CC(C)C)C(=O)N(C)[C@@H](C(C)C)C(=O)N1C [Valspodar, cyclosporin D, 6-[(2S, 4R, 6E)-4-methyl-2 (methylamino)-3-oxo-6-octenoic acid]-(9CI)] | concentration dependent inhibition of proteoglycan loss | not cell proliferation | inhibited hyaluronan production |
